Measurements published in PMC12520676.
Results are given in words; binding and its absence hold for the method and conditions named. In cells and extracts the contact can be indirect. Some results given as binding are weak or reduced against the parent protein; the word gives no strength. One block for each molecule: values may come before it.

By UniProt entry, the sequences of proteins in these tests, tags left out.
UniProt Q3KP44: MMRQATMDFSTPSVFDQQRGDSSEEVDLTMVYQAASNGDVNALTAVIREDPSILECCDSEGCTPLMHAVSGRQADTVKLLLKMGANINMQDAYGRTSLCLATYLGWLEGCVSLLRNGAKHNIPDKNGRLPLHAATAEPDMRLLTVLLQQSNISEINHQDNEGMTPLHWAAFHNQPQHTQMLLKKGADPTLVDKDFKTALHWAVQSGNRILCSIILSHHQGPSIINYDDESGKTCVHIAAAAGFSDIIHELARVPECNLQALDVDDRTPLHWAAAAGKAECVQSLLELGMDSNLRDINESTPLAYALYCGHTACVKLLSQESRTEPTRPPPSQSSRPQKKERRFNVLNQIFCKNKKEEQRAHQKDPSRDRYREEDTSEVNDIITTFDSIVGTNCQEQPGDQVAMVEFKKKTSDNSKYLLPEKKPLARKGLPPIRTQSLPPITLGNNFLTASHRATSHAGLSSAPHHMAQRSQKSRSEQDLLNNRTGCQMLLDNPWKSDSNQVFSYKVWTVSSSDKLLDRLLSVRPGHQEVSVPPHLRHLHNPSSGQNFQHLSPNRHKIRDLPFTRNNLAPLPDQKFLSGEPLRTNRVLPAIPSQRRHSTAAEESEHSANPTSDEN
UniProt P48643: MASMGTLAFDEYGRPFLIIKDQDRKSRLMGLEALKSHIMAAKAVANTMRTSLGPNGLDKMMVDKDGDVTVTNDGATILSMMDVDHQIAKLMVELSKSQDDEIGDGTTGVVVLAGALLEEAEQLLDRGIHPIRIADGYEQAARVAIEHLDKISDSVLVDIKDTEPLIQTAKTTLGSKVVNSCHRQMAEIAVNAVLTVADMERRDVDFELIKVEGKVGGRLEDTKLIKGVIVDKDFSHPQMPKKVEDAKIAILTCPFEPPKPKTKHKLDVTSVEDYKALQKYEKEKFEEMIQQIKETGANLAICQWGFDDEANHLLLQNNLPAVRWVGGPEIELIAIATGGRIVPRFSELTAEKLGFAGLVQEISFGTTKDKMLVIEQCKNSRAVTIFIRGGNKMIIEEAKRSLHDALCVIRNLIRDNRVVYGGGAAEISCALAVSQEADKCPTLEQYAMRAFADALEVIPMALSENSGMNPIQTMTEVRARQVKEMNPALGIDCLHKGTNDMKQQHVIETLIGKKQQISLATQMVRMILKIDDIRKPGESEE
UniProt P50990: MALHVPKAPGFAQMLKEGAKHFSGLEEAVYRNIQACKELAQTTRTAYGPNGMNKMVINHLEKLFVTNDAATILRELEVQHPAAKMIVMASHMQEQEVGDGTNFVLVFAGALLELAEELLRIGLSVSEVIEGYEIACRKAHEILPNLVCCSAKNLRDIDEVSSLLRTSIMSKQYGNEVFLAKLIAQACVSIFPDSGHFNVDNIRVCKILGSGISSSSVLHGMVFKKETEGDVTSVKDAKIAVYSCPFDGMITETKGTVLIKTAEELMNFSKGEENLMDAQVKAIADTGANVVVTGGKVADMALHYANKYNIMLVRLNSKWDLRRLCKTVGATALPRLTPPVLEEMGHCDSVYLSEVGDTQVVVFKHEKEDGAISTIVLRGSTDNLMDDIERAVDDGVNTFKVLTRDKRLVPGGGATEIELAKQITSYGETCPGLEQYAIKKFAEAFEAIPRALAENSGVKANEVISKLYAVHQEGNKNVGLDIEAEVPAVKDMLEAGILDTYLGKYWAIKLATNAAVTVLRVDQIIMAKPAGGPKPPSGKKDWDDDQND

Biological target: ankyrin repeat domain-containing protein 55 (ANKRD55), overexpressed in HEK293T cells (UniProt Q3KP44)
Assay: co-IP; ANKRD55 and one CCT subunit overexpressed in HEK293T; RIPA lysate; Protein A/G magnetic beads coupled to 1 ug antibody overnight at 4 C; 4 washes with lysis buffer; immunoblot

binding: no binding
Molecule: CCT5, expressed from a plasmid in HEK293T cells (from UniProt P48643 1-541)

binding: no binding
Molecule: CCT8, expressed from a plasmid in HEK293T cells (from UniProt P50990 1-548)

binding: binds
B1: CCT2, expressed from a plasmid in HEK293T cells (protein, UniProt P78371 1-535)
chain: MASLSLAPVNIFKAGADEERAETARLTSFIGAIAIGDLVKSTLGPKGMDKILLSSGRDASLMVTNDGATILKNIGVDNPAAKVLVDMSRVQDDEVGDGTTSVTVLAAELLREAESLIAKKIHPQTIIAGWREATKAAREALLSSAVDHGSDEVKFRQDLMNIAGTTLSSKLLTHHKDHFTKLAVEAVLRLKGSGNLEAIHIIKKLGGSLADSYLDEGFLLDKKIGVNQPKRIENAKILIANTGMDTDKIKIFGSRVRVDSTAKVAEIEHAEKEKMKEKVERILKHGINCFINRQLIYNYPEQLFGAAGVMAIEHADFAGVERLALVTGGEIASTFDHPELVKLGSCKLIEEVMIGEDKLIHFSGVALGEACTIVLRGATQQILDEAERSLHDALCVLAQTVKDSRTVYGGGCSEMLMAHAVTQLANRTPGKEAVAMESYAKALRMLPTIIADNAGYDSADLVAQLRAAHSEGNTTAGLDMREGTIGDMAILGITESFQVKRQVLLSAAEAAEVILRVDNIIKAAPRKRVPDHHPC
